These are yes or no findings as the source states them, for the method shown. Binding seen in cells or lysates may run through a third protein. Some entries that bind do so weakly or less than the wild type. Tags and fused reporters may be left off the sequences shown.
Target: T1, FLAG-RHOV in RHOV-overexpressing cells (UniProt Q96L33)
T1 sequence: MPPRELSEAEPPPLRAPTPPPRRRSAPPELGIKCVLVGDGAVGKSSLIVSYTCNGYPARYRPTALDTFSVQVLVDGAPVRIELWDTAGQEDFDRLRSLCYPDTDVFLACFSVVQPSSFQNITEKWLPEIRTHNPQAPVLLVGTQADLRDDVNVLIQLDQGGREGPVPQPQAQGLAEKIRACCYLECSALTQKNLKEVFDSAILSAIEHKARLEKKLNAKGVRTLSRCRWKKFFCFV
Experiment: co-IP

Chains of the proteins cited; added tags and fusions are not shown.
UniProt Q9H792: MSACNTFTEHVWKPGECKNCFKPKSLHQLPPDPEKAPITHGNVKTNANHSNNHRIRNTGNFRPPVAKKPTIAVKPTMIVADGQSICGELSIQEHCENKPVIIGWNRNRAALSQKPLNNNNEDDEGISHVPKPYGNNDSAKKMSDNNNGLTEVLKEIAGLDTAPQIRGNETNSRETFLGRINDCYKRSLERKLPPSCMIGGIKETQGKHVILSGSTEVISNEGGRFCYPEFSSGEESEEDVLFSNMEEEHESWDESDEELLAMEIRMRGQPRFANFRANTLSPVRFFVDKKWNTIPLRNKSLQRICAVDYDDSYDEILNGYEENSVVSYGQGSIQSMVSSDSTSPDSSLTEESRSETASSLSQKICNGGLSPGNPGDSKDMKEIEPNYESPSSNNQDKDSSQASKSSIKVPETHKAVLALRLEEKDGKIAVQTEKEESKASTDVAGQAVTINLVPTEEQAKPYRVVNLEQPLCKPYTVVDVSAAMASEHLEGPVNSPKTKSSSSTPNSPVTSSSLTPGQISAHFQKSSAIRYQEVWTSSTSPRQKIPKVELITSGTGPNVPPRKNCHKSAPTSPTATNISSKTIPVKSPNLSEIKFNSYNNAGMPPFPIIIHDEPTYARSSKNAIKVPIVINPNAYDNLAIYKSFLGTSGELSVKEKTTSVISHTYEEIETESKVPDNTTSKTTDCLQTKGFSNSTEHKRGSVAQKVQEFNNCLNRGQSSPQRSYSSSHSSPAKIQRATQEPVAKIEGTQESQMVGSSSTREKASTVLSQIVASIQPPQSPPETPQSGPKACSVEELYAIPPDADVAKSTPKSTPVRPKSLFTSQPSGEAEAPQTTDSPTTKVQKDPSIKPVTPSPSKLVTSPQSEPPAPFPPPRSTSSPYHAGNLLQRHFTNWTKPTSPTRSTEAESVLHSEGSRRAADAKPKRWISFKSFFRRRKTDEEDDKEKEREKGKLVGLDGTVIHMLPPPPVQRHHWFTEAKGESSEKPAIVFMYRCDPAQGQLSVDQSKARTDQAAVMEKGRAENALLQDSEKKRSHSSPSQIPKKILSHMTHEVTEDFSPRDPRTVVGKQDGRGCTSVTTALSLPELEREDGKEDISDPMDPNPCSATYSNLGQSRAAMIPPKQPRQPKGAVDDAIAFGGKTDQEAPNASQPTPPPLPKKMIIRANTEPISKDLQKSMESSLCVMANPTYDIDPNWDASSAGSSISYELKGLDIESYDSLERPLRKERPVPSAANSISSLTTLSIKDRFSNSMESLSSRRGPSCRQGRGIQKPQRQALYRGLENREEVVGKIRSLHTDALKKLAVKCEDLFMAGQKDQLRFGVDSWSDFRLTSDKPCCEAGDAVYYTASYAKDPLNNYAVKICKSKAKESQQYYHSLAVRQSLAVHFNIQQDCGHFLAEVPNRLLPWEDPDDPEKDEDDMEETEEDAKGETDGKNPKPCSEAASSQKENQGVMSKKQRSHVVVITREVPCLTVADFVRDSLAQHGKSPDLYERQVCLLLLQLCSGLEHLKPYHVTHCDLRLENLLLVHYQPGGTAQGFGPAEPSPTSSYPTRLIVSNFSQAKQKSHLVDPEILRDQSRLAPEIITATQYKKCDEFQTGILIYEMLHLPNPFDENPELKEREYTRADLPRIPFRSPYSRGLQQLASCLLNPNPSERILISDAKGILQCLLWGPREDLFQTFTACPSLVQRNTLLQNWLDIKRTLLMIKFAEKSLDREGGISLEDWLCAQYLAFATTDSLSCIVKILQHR

With “Pseudopodium Enriched Atypical Kinase 1 (PEAK1) (from UniProt Q9H792 1-1746)” as the substance, how does the binding read?
Its binding is “binds”.

— publication doi:10.1101/2025.04.18.649622
